Experimental data: patent US6673785B1, “Use of hepoxilins or hepoxilin analogs as antidiabetics, antiinflammatory agents” (priority 1999, dated 2004)
Some entries share one result that the patent states for a list of compounds. For at least one compound, name, drawing or mass did not settle the structure.

test system: bleomycin-induced lung fibrosis; test: Bleomycin-induced lung injury mouse model; type: in vivo
Experimental: Mice were divided into 7 groups, each containing 5 animals. All groups were administered i.p. saline+7% ethanol as vehicle. Group 1 received only vehicle. Groups 2-7 received intratracheal bleomycin. Bleomycin is an antibiotic having antineoplastic activity. It is used clinically to treat malignancies such as lymphoma and testicular cancer. However, it has several side effects such as causing lung fibrosis characterized by diffuse alveolar hemorrhage and marked accumulation of inflammatory cells and an increase in collagen synthesis. Additionally, Group 3 received Trolox antioxidant, Group 4 received H1, Group 5 received H2, Group 6 received H3, and Group 7 received H4. All hepoxilins were dissolved in 7 μl ethanol and diluted to 100 μl saline for i.p. administration. All compounds were administered daily at the dose of 100 μg/20 g (5000 μg/kg) mouse for 8 days. Lungs from all animals were perfused and fixed for histology. […] As in section B1 above, the effective concentration of the drugs is unknown due to the still undetermined uptake and distribution in the body. The present study served as an indicator of biological activity in vivo. The study was also conducted using saline or 200 μg/mouse bleomycin. In these studies the hepoxilin analogs H1 and H2 were administered in various concentrations (FIGS. 14A-14E). […] Lung fibrosis was associated with increased collagen synthesis (FIGS. 15A, 15B). […] Collagen staining was done using sirius red and fast green.

SMILES | collagen synthesis (sirius red and fast green staining)
CCCCC/C=C\CC1CC1/C=C/[C@H](O)C/C=C\CCCC(=O)OC (stereo partly drawn) [H2, 8(R)hydroxy-11,12-cyclopropyl-eicosa-5Z, 10E, 14Z-trienoic acid methyl ester] | decreased collagen synthesis
CCCCC/C=C\CC1CC1[C@H](O)/C=C\C/C=C\CCCC(=O)OC (stereo partly drawn) [H4, 10(R)-hydroxy-11, 12-cyclopropyl-eicosa-5Z, 8Z, 14Z-trienoic acid methyl ester] | decreased collagen synthesis
CCCCC/C=C\CC1CC1C(O)/C=C\C/C=C\CCCC(=O)OC [H3, 10(S)-hydroxy-11,12-cyclopropyl-eicosa-5Z, 8Z, 14Z-trienoic acid methyl ester] | decreased collagen synthesis
CCCCC/C=C\CC1CC1/C=C/[C@@H](O)C/C=C\CCCC(=O)OC (stereo partly drawn) [H1, 8(S)-hydroxy-11 ,12-cyclopropyl-eicosa-5Z, 10E, 14Z-trienoic acid methyl ester] | decreased collagen synthesis
